Source: PubChem BioAssay AID493014 (National Center for Advancing Translational Sciences (NCATS), 2011)
The list shows a part of the results. These are further read-outs of the screen, such as a control signal, another cell line or another target. No call is given for them. The list favours compounds with an active or inconclusive main result. Potencies come from curve fits of mixed quality, noted in brackets.

Experiment: qHTS Assay to Find Inhibitors of Chronic Active B-Cell Receptor Signaling
Settings: ABC-DLBCL IkBa-CBG/CBR reporter, luminescence ratio (green luciferase fused to IkBa over red control in TMD8 lymphoma cells), 4 h
In short: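 TMD8 human ABC-DLBCL cells with doxycycline-inducible IκBα–green luciferase fusion and unfused red luciferase, in 0.5% FBS medium; compounds up to 46 uM, 4 h at 37C. Green/red luminescence ratio, filter-overlap corrected, fitted to concentration-response curves.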

[1] = measured here: CBR red luminescence, cell number
[2] = measured here: IkBa-CBG green luminescence

SMILES | AC50 [1] | AC50 [2]
Cn1c(=O)c2c(nc(NCc3ccccc3)n2Cc2ccc(F)cc2)n(C)c1=O | 1.64 µM [falling, full curve, poor fit] | 2.91 µM [rising, full curve]
CC(=O)Nc1cccc(-c2cc(C)c3cc4c(cc3n2)OCO4)c1 | 6.31 µM [rising, partial curve, poor fit] | 
COc1cccc(/C=C2\SC(=S)N(CCCC(=O)N3CCCC3)C2=O)c1 | 7.94 µM [falling, partial curve, poor fit] | 
CCCNS(=O)(=O)c1cc(CN2C(=O)c3cccnc3C2=O)ccc1OC | 5.01 µM [falling, single point] | 
CCN1C(=NCC(C)C)N[C@@H](c2cccc(C(F)(F)F)c2)C(C(=O)OC)=C1C | 7.94 µM [falling, partial curve] | 
CCC1(CC)NC(=O)N(CC(=O)OCC(=O)Nc2sccc2C#N)C1=O | 35.5 µM [rising, single point] | 
CC(c1nnc(SCC(=O)N2CC(=O)Nc3ccccc32)n1Cc1ccccc1)N(C)C (stereo unspecified) | 6.51 µM [rising, single point] | 
O=C(NNC(=S)Nc1cccc(C(F)(F)F)c1)c1ccc(Cl)cc1Cl | 29.1 µM [falling, single point] | 
COc1cc(/C=N/NC(=S)NCCN2CCOCC2)cc(OC)c1OC | 29.1 µM [rising, single point] | 8.2 µM [falling, partial curve, poor fit]
O=C(NC1CCCC1)C1=COCCO1 | 2.91 µM [rising, partial curve, poor fit] | 
COc1ccc(NC(=O)c2cccn(CC=C(C)C)c2=O)cc1 | 20 µM [falling, single point] | 
Cn1c(SC2=CS(=O)(=O)c3ccccc32)nc2ccccc21 | 22.4 µM [falling, partial curve, poor fit] | 
Cc1nc2c(C(F)(F)F)cccc2c2c1CCS2 | 17.8 µM [rising, partial curve, poor fit] | 10 µM [falling, partial curve]
COc1cc(/C=N/Nc2nc(Nc3ccccc3)nc(N3CCCCC3)n2)ccc1OCC(=O)O | 25.1 µM [falling, single point] | 
Clc1ccc(CNc2nc(CN3CCOCC3)nc3scc(-c4ccccc4)c23)cc1 | 29.1 µM [falling, single point] | 
C=CCOC(=O)C1=C(C)NC(SCC(N)=O)=C(C#N)C1c1ccc(C)cc1 (stereo unspecified) | 0.1 µM [rising, full curve, poor fit] | 
Cc1ccc(C(=O)N2CCN(c3ccccc3F)CC2)cc1S(=O)(=O)N1CCOCC1 | 0.316 µM [falling, full curve, poor fit] | 
CN1CC(=O)N2C(c3ccc(Cl)cc3)c3[nH]c4ccccc4c3C[C@H]2C1=O (stereo partly specified) | 22.4 µM [falling, single point] | 
O=C(O)c1cc(N/N=C/c2c(O)ccc3ccccc23)ccc1Cl | 35.5 µM [falling, single point] | 
O=C(NCCc1ccccc1)c1cc(-c2ccco2)on1 | 6.51 µM [falling, full curve] | 

A few values from the entries so far:
In AC50 [1], CC(=O)Nc1cccc(-c2cc(C)c3cc4c(cc3n2)OCO4)c1 has the entry 6.31 µM [rising, partial curve, poor fit]
In AC50 [1], Cc1nc2c(C(F)(F)F)cccc2c2c1CCS2 has the entry 17.8 µM [rising, partial curve, poor fit]
In AC50 [1], COc1cc(/C=N/NC(=S)NCCN2CCOCC2)cc(OC)c1OC has the entry 29.1 µM [rising, single point]

Additional compounds follow.

SMILES | AC50 [1] | AC50 [2]
CN(C)S(=O)(=O)c1cccc(NC(=O)CSc2nc3c(cc2C#N)C(=O)CC(C)(C)C3)c1 | 18.4 µM [falling, partial curve] | 
CSc1ccccc1NC(=O)CN(C)CC(=O)Nc1ccc(N2CCOCC2)cc1 | 15.8 µM [rising, partial curve, poor fit] | 
O=C(/C(=C/c1ccccc1)n1cncn1)c1ccc(Cl)cc1Cl | 18.4 µM [falling, single point] | 
Cc1nnc(SCC(=O)Nc2ccc(O)cc2)c2ccccc12 | 11.2 µM [falling, partial curve] | 
Cc1cc(C(=O)CCC(=O)Nc2ncccc2C)c(C)s1 | 29.1 µM [falling, partial curve, poor fit] | 
Cn1c(SCC(=O)Nc2nc3ccccc3s2)ncc(C(=O)Nc2ccccc2)c1=O | 22.4 µM [falling, partial curve, poor fit] | 
CC1CCCCN1S(=O)(=O)c1ccc(C(=O)Nc2sccc2C(N)=O)cc1 (stereo unspecified) | 18.4 µM [falling, single point] | 
COC(=O)Nc1nc(-c2cc(Cl)ccc2Cl)cs1 | 5.62 µM [rising, partial curve, poor fit] | 
O=C(Nc1ccc2c(c1)OCCO2)C1CCCN(S(=O)(=O)Cc2ccccc2)C1 (stereo unspecified) | 25.9 µM [falling, partial curve, poor fit] | 
CCc1nnc(NC(=O)c2ccc(S(=O)(=O)N3CCCC3)cc2)s1 | 14.1 µM [falling, partial curve, poor fit] | 
Cc1nn(-c2ccccc2)c(Cl)c1CN(C(=O)CCl)c1cccc2ccccc12 | 23.1 µM [falling, partial curve, poor fit] | 11.6 µM [rising, partial curve, poor fit]
CC1CCCCN1C(=O)COC(=O)c1n[nH]c2ccccc12 (stereo unspecified) | 18.4 µM [falling, single point] | 
COc1ccccc1-c1nnc(SCC(=O)NCc2c(C)c(Cl)cc(C(C)C)c2O)o1 | 20.6 µM [falling, single point] | 
NS(=O)(=O)c1cccc(NC(=O)COC(=O)/C(=C/c2cccs2)c2cccs2)c1 | 25.9 µM [falling, partial curve] | 
Cc1cccn2c(N)c(-c3ccccc3)nc12 | 28.2 µM [falling, partial curve, poor fit] | 
O=S(=O)(c1ccc2nc(Nc3ccccc3)ccc2c1)N1CCCCC1 |  | 12.6 µM [rising, partial curve, poor fit]
CCOc1ccc(CNC(=O)C(CC)n2nc(C)n3c(cc4occc43)c2=O)cc1OC (stereo unspecified) | 29.1 µM [falling, single point] | 
COCCNc1c2c(c(C#N)c3nc4ccccc4n13)CCCC2 |  | 15.8 µM [rising, partial curve, poor fit]
COCCCn1c(=O)/c(=C\c2cccc(OC)c2OC)s/c1=C(/C#N)C(=O)Nc1ccc(C(=O)O)cc1 | 20 µM [falling, partial curve, poor fit] | 11.2 µM [rising, single point]
CNC(=O)c1[nH]cnc1C(=O)Nc1ccccc1C | 7.31 µM [falling, partial curve] | 2.59 µM [rising, full curve, poor fit]

SMILES | AC50 [1] | AC50 [2]
CN(CC(=O)Nc1ccc(F)c(F)c1)S(=O)(=O)c1cccs1 | 3.98 µM [falling, partial curve, poor fit] | 
O=C(CNS(=O)(=O)Cc1ccccc1)NCc1ccccc1 | 20 µM [falling, partial curve, poor fit] | 
CC1OC(Nc2ccc(N=Nc3ccccc3)cc2)C(O)C(O)C1O (stereo unspecified) | 14.1 µM [falling, single point] | 
CCCCOc1ccc(C(=O)Nc2ccc(N3CCN(C(C)=O)CC3)cc2)cc1 | 8.2 µM [falling, partial curve, poor fit] | 
Cc1ccc2nc(SCC(=O)NCc3ccco3)[nH]c2c1 | 7.31 µM [rising, single point] | 
Cc1ccc(C)c2c1cc(C)c1nnc(SCC(=O)Nc3cccc(C(=O)O)c3)n12 | 11.2 µM [rising, partial curve, poor fit] | 
C=CC[C@@H](CC(=O)N(CCO)Cc1ccccc1)C(=O)NC[C@H](OC(=O)[C@@H](CC=C)CC(=O)OC(C)(C)C)c1ccccc1 | 16.4 µM [falling, single point] | 
COc1ccccc1Cc1noc(COc2cccc(C)c2C)n1 | 0.00731 µM [rising, full curve, poor fit] | 
O=[N+]([O-])c1cc2c(cc1/C=N/Nc1nc(Nc3ccccc3)nc(N3CCCCC3)n1)OCO2 | 2.51 µM [falling, full curve, poor fit] | 
O=C(CN1CCN(Cc2ccc(Cl)cc2)CC1)N/N=C/C=C/c1ccccc1[N+](=O)[O-] | 20.6 µM [falling, partial curve, poor fit] | 
Cc1ccc(C)c(NC(=O)CN(C)C(=O)c2ccc(-c3ccc(Cl)cc3)o2)c1 | 20.6 µM [rising, partial curve, poor fit] | 
O=C(C[C@@H]1C/C=C\C[C@H](NC(=O)OCC2c3ccccc3-c3ccccc32)C(=O)OC[C@H]2CCCN2C1=O)N[C@@H](CO)Cc1ccccc1 | 18.4 µM [falling, single point] | 
O=C(CCCc1nc(-c2ccccc2)no1)NC1CCCC1 |  | 5.01 µM [rising, partial curve, poor fit]
Cc1cc(C)cc(NC(=S)NCc2cccnc2)c1 | 18.4 µM [falling, single point] | 
O=C1CSC(c2ccccc2[N+](=O)[O-])N1c1cccc(F)c1 (stereo unspecified) | 35.5 µM [falling, single point] | 
CCOc1ccc(/C=C2/SC(=O)NC2=S)cc1 | 20.6 µM [falling, single point] | 
O=[N+]([O-])c1ccc(SCc2ccncc2)nc1 | 35.5 µM [rising, single point] | 
COC(=O)Cc1ccc2sc(-c3ccccc3)nc2c1 | 14.6 µM [falling, single point] | 
COc1cc2c(cc1OC)-c1cc3ccc4c(c3c[n+]1CC2)OCO4 | 11.6 µM [rising, partial curve, poor fit] | 
O=C(CCNS(=O)(=O)c1ccccc1C(F)(F)F)NCc1ccc2c(c1)OCO2 | 1.46 µM [falling, partial curve] | 
